Test [1] deals with MBP-Cdk10 (T196A) (human) (UniProt Q15131). The experiment in a line: pull-down; co-purification from Sf9 cells co-expressing MBP-Cdk10 (bait) and His-CycQ; 1 ml MBPTrap column; lysis/wash 50 mM Hepes pH 7.6, 300 mM NaCl, 1 mM TCEP; elution with 10 mM maltose; Coomassie SDS-PAGE.
Test [2] deals with MBP-Cdk10 (T196E) (human) (UniProt Q15131). The test is described as above.
Test [3] concerns the target MBP-Cdk10 (human, wild type) (human) (UniProt Q15131). Described as above.
Test [4] has as its target analogue-sensitive Cdk10 (M117G) (human) (UniProt Q15131). As to the kind of experiment: SEC; complex co-expressed in Sf9, purified by sequential HisTrap (His-CycQ) and MBPTrap (MBP-Cdk10) columns, tags removed by TEV, then Superdex 75 pg in 20 mM Hepes, 300 mM NaCl, 1 mM TCEP, 10% glycerol; SDS-PAGE of the purified complex; both purified.

By UniProt entry, the sequences of proteins in these tests, tags left out. Where a name states a change or a piece, a line headed by the entry shows the natural chain unless it says otherwise.
UniProt Q15131: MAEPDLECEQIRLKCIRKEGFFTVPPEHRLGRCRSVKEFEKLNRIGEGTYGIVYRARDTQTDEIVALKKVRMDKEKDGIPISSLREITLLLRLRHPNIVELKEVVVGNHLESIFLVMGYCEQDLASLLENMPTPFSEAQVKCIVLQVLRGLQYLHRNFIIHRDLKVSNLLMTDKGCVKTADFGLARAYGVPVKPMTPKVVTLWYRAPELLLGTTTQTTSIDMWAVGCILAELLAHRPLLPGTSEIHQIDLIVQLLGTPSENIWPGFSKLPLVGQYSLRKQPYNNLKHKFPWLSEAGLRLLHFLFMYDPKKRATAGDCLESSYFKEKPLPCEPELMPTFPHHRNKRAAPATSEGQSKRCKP

Results are given in words; binding and its absence hold for the method and conditions named. For some of these results: In cells and extracts the contact can be indirect. Some results given as binding are weak or reduced against the parent protein; the word gives no strength. Tags and fused reporters may be left off the sequences shown.

B1: His-CycQ (human Cyclin Q) (protein, UniProt Q8N1B3 1-248)
chain: MEAPEGGGGGPAARGPEGQPAPEARVHFRVARFIMEAGVKLGMRSIPIATACTIYHKFFCETNLDAYDPYLIAMSSIYLAGKVEEQHLRTRDIINVSNRYFNPSGEPLELDSRFWELRDSIVQCELLMLRVLRFQVSFQHPHKYLLHYLVSLQNWLNRHSWQRTPVAVTAWALLRDSYHGALCLRFQAQHIAVAVLYLALQVYGVEVPAEVEAEKPWWQVFNDDLTKPIIDNIVSDLIQIYTMDTEIP
B1: the binding result in test [1], in test [2] and in test [3] was “binds” throughout.

B2: human Cyclin Q, full length, tag removed (protein, UniProt Q8N1B3 1-248)
chain: B1 chain
For B2, in test [4], the binding entry is listed as “binds”.

Values taken from article PMC8924752, “Functional characterization of the human Cdk10/Cyclin Q complex” (Open Biology, 2022).
